Measurements reported in publication doi:10.1101/2023.08.11.552966 (bioRxiv, 2023).
Results are given in words; binding and its absence hold for the method and conditions named. Binding seen in cells or lysates may run through a third protein. Some results given as binding are weak or reduced against the parent protein; the word gives no strength.

By UniProt entry, the sequences of proteins in these tests, tags left out.
UniProt Q06609: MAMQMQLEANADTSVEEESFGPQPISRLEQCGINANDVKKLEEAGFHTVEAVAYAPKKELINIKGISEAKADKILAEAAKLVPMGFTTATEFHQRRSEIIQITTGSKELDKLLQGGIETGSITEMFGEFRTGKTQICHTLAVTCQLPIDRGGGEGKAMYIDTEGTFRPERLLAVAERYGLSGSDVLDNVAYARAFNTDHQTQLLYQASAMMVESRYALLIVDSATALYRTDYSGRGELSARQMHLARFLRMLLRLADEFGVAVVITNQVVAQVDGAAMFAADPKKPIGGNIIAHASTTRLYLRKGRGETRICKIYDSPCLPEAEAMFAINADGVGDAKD

Molecular target: RAD51 (endogenous, HeLa nuclear extracts) (human (endogenous in HeLa)) (UniProt Q06609)
Experiment: co-IP

B1: Sc35 (Nuclear Speckles component, endogenous, HeLa nuclear extracts) (protein, UniProt Q01130 1-221)
chain: MSYGRPPPDVEGMTSLKVDNLTYRTSPDTLRRVFEKYGRVGDVYIPRDRYTKESRGFAFVRFHDKRDAEDAMDAMDGAVLDGRELRVQMARYGRPPDSHHSRRGPPPRRYGGGGYGRRSRSPRRRRRSRSRSRSRSRSRSRSRYSRSKSRSRTRSRSRSTSKSRSARRSKSKSSSVSRSRSRSRSRSRSRSPPPVSKRESKSRSRSKSPPKSPEEEGAVSS
binding: binds
